For at least one compound, name, drawing or mass did not settle the structure.
Tested on: human neuronal calcium channel α2 and β1 subunits
Assay: two-electrode voltage clamp, oöcytes injected with α2 and β1 transcripts
Conditions: nifedipine 5 to 10 μM, holding potential −50 mV

SMILES: COC(=O)C1=C(C)NC(C)=C(C(=O)OC)C1c1ccccc1[N+](=O)[O-] [nifedipine]
- sensitivity of inward barium currents to nifedipine: insensitive

Reference: patent US7414110B2, “Human calcium channel compositions and methods” (Merck & Co., Inc., priority 1990, dated 2008)
